Test results published in paper PMC8806838.
No constants are given. Whether binding was seen depends on the method and setting. In cells and extracts the contact can be indirect. Some entries that bind do so weakly or less than the wild type.

By UniProt entry, the sequences of proteins in these tests, tags left out.
UniProt Q8R4B8: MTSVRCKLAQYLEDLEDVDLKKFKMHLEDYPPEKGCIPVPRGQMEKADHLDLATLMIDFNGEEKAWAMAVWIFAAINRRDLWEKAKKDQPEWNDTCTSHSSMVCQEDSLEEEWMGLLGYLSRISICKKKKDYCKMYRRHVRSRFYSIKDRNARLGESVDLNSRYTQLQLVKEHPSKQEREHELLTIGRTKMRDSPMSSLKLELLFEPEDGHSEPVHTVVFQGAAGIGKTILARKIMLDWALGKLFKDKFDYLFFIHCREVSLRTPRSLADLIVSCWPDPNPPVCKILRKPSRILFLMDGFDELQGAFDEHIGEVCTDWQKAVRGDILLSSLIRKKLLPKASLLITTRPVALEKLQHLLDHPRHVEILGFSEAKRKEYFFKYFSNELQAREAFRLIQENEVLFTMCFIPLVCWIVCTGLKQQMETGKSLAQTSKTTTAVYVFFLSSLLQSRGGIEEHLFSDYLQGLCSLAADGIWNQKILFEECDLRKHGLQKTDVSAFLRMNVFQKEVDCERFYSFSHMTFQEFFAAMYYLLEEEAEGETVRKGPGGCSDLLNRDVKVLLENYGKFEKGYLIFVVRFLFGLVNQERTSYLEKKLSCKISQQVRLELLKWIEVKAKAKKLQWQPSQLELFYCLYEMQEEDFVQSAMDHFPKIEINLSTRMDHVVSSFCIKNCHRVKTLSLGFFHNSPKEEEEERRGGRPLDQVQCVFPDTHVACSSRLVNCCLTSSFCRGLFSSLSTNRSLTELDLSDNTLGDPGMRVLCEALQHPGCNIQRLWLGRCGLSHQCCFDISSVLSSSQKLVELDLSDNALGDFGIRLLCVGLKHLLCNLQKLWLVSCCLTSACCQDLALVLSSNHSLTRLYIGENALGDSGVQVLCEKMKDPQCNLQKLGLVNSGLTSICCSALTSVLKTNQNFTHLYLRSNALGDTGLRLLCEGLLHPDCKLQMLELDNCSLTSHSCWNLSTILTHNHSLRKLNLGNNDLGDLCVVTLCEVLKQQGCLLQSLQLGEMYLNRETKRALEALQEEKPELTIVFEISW

T1: Thioredoxin-interacting protein (mouse (endogenous in primary hippocampal neurons)) (UniProt Q8BG60)
T1 sequence: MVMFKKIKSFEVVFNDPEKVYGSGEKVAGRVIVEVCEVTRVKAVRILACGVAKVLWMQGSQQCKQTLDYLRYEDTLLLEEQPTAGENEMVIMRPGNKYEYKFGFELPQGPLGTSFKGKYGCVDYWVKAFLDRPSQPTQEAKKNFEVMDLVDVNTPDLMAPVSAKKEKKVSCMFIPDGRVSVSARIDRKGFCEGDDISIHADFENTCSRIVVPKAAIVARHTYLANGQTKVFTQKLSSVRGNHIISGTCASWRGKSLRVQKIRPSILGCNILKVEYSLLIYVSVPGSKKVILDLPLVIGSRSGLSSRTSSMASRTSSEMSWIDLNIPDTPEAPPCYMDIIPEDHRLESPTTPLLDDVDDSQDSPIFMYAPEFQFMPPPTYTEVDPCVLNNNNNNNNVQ

B1: Thioredoxin-interacting protein (protein, UniProt Q8BG60 1-397)
chain: T1 sequence

How the values were obtained:
[1] = biological target: T1, Thioredoxin-interacting protein (mouse (endogenous in primary hippocampal neurons)); assay: co-IP; Capture and Release Reversible Immunoprecipitation System Kit (Merck Millipore); precipitation with TXNIP antibody (ab188865) or NLRP3 antibody (ab214185); rabbit/mouse IgG as negative control; sample not named
[2] = biological target: NLR family, domain of pyrin containing 3 (mouse (endogenous in primary hippocampal neurons)) (UniProt Q8R4B8); assay: as above

Molecule | binding [1] | binding [2]
NLR family, domain of pyrin containing 3 (from UniProt Q8R4B8 1-1033) | binds | 
B1 |  | binds
